Experimental data: PubChem BioAssay AID1259424 (University of Nebraska Medical Center, 2018)
The deposit covers about 14,000 reagents; this is a part drawn at random. 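Higher correlation or smaller distance means closer resemblance to KSR1 loss; control wells, including KSR1 knockdowns, recur on many plates.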 Not all columns of the deposit are shown. Reagent sequences are not shown. Not given: the time to read-out.

Purpose: 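Seek colon cancer survival genes behaving like KSR1, using a six-gene signature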 (primary screen)
Cell system: human HCT116 colon cancer cells
Reagent: siRNA pool against human genes, 50 nM
Measured: 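Six signature mRNAs by branched-DNA multiplex assay, scaled to two housekeeping genes and non-targeting median, log2; matched to mean KSR1 knockdown profile by Pearson correlation and euclidean distance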
Scale: mean correlation with KSR1 profile: higher = expression change more like KSR1 knockdown; mean distance from KSR1 profile: higher = expression change less like KSR1 knockdown

gene	mean correlation with KSR1 profile	mean distance from KSR1 profile
CXCL1 (GeneID 2919)	0.649	1.41
IKZF3 (GeneID 22806)	-0.0312	2.74
ANXA2 (GeneID 302)	-0.113	1.56
CDON (GeneID 50937)	-0.198	3.33
PNKP (GeneID 11284)	0.642	2.53
SFTPD (GeneID 6441)	0.0297	1.62
NELFCD (GeneID 51497)	-0.134	3.46
SDC2 (GeneID 6383)	-0.0173	2.18
CBL (GeneID 867)	0.0887	1.35
MBNL1 (GeneID 4154)	-0.52	2.8
CES1P1 (GeneID 51716)	0.335	2.34
NUP214 (GeneID 8021)	-0.179	2.97
TMEM121 (GeneID 80757)	0.356	1.9
HTR2C (GeneID 3358)	0.696	1.78
TMEM53 (GeneID 79639)	0.527	1.88
SUN2 (GeneID 25777)	-0.604	3.45
RMP64 (GeneID 25871)	-0.378	2.03
UTP25 (GeneID 27042)	0.0786	2.29
UTY (GeneID 7404)	0.205	2.05
MARCHF8 (GeneID 220972)	-0.443	2.43
EFNA5 (GeneID 1946)	-0.049	1.91
DHRS11 (GeneID 79154)	-0.187	1.62
SIAE (GeneID 54414)	-0.658	2.71
RIPK2 (GeneID 8767)	0.595	1.01
MAGI3 (GeneID 260425)	-0.0155	4.26
PGGT1B (GeneID 5229)	-0.463	2.86
GOSR1 (GeneID 9527)	-0.273	2.29
KCND2 (GeneID 3751)	-0.433	2.04
CEP43 (GeneID 11116)	-0.565	2.81
PLK4 (GeneID 10733)	-0.682	2.53
FRK (GeneID 2444)	-0.25	3.88
PCIF1 (GeneID 63935)	-0.0842	2.75
CLDN11 (GeneID 5010)	-0.0778	1.92
CDH22 (GeneID 64405)	0.374	1.98
